Out of some 330,000 compounds screened, about 7,700 (2.3%) were called active. Inconclusive results, whose numbers are uncertain, are shown with a selection of clear calls. Calls come from the whole dose curve; as a rule, active = well fitted inhibition curve with a large enough effect; inconclusive = small, poorly fitted or top-dose-only effect, or effect the other way; inactive = flat fitted curve, though single readings scatter. Potencies of inconclusive entries are doubtful fits and often do not repeat.
Test: qHTS screen for small molecules that inhibit ELG1-dependent DNA repair in human embryonic kidney (HEK293T) cells expressing luciferase-tagged ELG1; note: nearly all actives have a fitted effect of over 55% in size
Settings: HEK293T ELG1-luciferase reporter, luminescence, 16 h, DNA damage induced by 5-fluorouridine; activity change, negative = inhibition: at 46.1 µM (top of the series)
In short: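 Quantitative HTS, concentration-response format. 2,000 cells/well co-treated with 5-fluorouridine and compound, 16 hr in 5% CO2 at 37 °C; ONE-Glo luminescence read after 30 min.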
% is set by controls: 0 for no effect and ±100 for the full control effect; potency is the fitted concentration of half-maximal effect.

Row | Compound | Potency | activity change, negative = inhibition
1 | Cc1ccc(S(=O)(=O)NCC2COc3ccccc3O2)cc1 (centres undefined) | inconclusive: 29.1 µM [inhibitor, single point] | 
2 | Cc1cccc(NC(=O)c2cnn3ccccc23)c1C | inconclusive: 23.1 µM [activator, partial curve] | 
3 | COc1cccc(C(=O)O/N=C(\N)c2ccc([N+](=O)[O-])cc2)c1OC | inconclusive: 2.06 µM [activator, partial curve, poor fit] | 
4 | COC(=O)C1=C(C)NC(=O)CC1c1ccccc1 (centres undefined) | inconclusive: 8.2 µM [activator, partial curve, poor fit] | 
5 | CCC(COC(=O)c1ccccc1)Oc1cc(NCc2ccccc2)c2ncn(C(C)C)c2c1 (centres undefined) | inconclusive: 20.6 µM [inhibitor, single point] | 
6 | CCn1c(=O)c(C(=O)CN2CCc3ccccc32)c(N)n(Cc2ccccc2)c1=O | inconclusive: 29.1 µM [inhibitor, single point] | 
7 | COc1cc(/C=C(\C#N)C(=O)Nc2ccc3c(c2)OCCO3)ccc1O |  | inactive: 1.9%
8 | Nc1nonc1C(=O)NCCc1ccccc1 | inconclusive: 18.4 µM [activator, single point] | 
9 | Cn1c(=O)c2c(nc(SCC(=O)NCc3ccc4c(c3)OCO4)n2Cc2ccc(Cl)cc2)n(C)c1=O | inconclusive: 29.1 µM [inhibitor, single point] | 
10 | COc1cc2c3c(c1)/C(=C1/SC(=S)NC1=O)C(=O)N3C(C)(C)C=C2C | inconclusive: 5.17 µM [inhibitor, full curve, poor fit] | 
11 | O=C(Nc1ccccn1)c1sc2cc([N+](=O)[O-])ccc2c1Cl | inconclusive: 11.2 µM [activator, partial curve, poor fit] | 
12 | Cc1noc2ncnc(Oc3ccc(Cl)cc3Cl)c12 |  | inactive: 9.56%
13 | CC1CC(C)CN(CCCSc2ccccc2)C1 (centres undefined) | inconclusive: 20.6 µM [inhibitor, single point] | 
14 | CCN1CCN(c2ncc(C(=O)Nc3c(F)cc(F)cc3Br)c3ccccc23)CC1 | inconclusive: 18.4 µM [inhibitor, single point] | 
15 | Cc1cc(OC(C)C(=O)N(Cc2ccco2)C2CCS(=O)(=O)C2)cc(C)c1Cl (centres undefined) |  | inactive: -6.3%
16 | O=C(NC1CCC(O)CC1)c1ccc2c(c1)S(=O)(=O)N=C1CCCCCN12 (centres undefined) | inconclusive: 29.1 µM [activator, single point] | 
17 | CCCCn1c(=O)[nH]c(=O)c2c1nc(-c1ccccc1F)n2Cc1ccccc1 | inconclusive: 20.6 µM [inhibitor, single point] | 
18 | O=C(Nc1nc(-c2ccccn2)cs1)Nc1ccc(F)cc1F | inconclusive: 3.66 µM [inhibitor, single point] | 
19 | Cc1cccc(NC(=O)C2CCCN(c3ncnc4c3nc3n4CCCCC3)C2)n1 (centres undefined) | inconclusive: 13 µM [inhibitor, partial curve, poor fit] | 
20 | N#Cc1ccc(S(=O)(=O)NC2CCCCNC2=O)cc1 (centres undefined) |  | inactive: -6.22%
21 | COc1ccc(NC(=O)CN(C)CC(=O)N(CC(C)C)c2c(N)n(CC(C)C)c(=O)[nH]c2=O)cc1 | inconclusive: 29.1 µM [activator, single point] | 
22 | Cc1ccc(C)c(OCCC(=O)OCC(=O)NC(=O)NC2CCCC2)c1 | inconclusive: 6.51 µM [activator, single point] | 
23 | NCCSC1CC(=O)N(c2ccc(F)cc2)C1=O (centres undefined) |  | inactive: 10.1%
24 | CN(C)c1ccc(C(=O)NN2C(=O)c3ccccc3C2=O)cc1 |  | inactive: 12.2%
25 | COc1ccc(CNS(=O)(=O)c2ccc3c(c2)NC(=O)C(C)S3)cc1 (centres undefined) | inconclusive: 25.9 µM [inhibitor, partial curve, poor fit] | 

Row | Compound | Potency | activity change, negative = inhibition
26 | Cc1[nH]n(-c2ccccc2)c(=O)c1C(C[N+](=O)[O-])c1ccc(Cl)cc1 (centres undefined) |  | inactive: -7.05%
27 | O=C(Nc1cc(Cl)ccn1)C1CCN(S(=O)(=O)c2cccs2)CC1 | active: 8.2 µM | 
28 | COc1ccc(-n2ccc(=O)c3c2CCCC3=O)cc1 | inconclusive: 25.9 µM [inhibitor, single point] | 
29 | O=C(CCCCCn1c(=S)[nH]c2ccc(N3CCOCC3)cc2c1=O)NCc1ccc2c(c1)OCO2 | inconclusive: 20.6 µM [inhibitor, single point] | 
30 | Cc1ccc(C)c(NC(=S)N(C)C)c1 |  | inactive: 1.17%
31 | C/C(=N\NC(=O)c1cc2ccccc2cc1O)c1cc2ccccc2o1 | inconclusive: 16.4 µM [inhibitor, single point] | 
32 | CCOC(=O)c1c(N2C(=O)CC(Sc3ccccc3C(=O)O)C2=O)sc(C)c1C (centres undefined) |  | inactive: 2.45%
33 | O=P(Cc1ccccc1)(c1ccccc1)c1ccccc1 |  | inactive: 1.1%
34 | Clc1ccc(-c2nnc(-c3ccccc3)o2)cn1 | inconclusive: 29.1 µM [activator, single point] | 
35 | COc1ccccc1/C=N/Nc1nccnc1Cl | inconclusive: 13 µM [activator, partial curve] | 
36 | O=C(Nc1nnc(-c2ccccc2Cl)s1)c1ccccc1F | inconclusive: 5.8 µM [activator, partial curve] | 
37 | Cc1ccc2c(c1)sc1nc(=O)n(-c3ccc(Cl)cc3)c(=O)n12 |  | inactive: 28.3%
38 | Cc1ccc(-c2cc(N)n3nc(-c4ccc(C)cc4)cc3n2)cc1 |  | inactive: -11%
39 | CCOc1ccccc1OCCCC(=O)Nc1cc(S(=O)(=O)N2CCOCC2)ccc1OC | inconclusive: 23.1 µM [inhibitor, partial curve] | 
40 | COC(=O)c1ccc(C2C(C(=O)Nc3ccccc3C)=C(C)Nc3ncnn32)cc1 (centres undefined) | inconclusive: 16.4 µM [activator, single point] | 
41 | CCOc1ccc(-c2csc(NC(=O)c3cccc(N4C(=O)CCC4=O)c3)n2)cc1 |  | inactive: -14.6%
42 | COC(=O)C1C(=O)C(C(=O)/C=C/c2ccccc2)C(=O)CC1(C)C (centres undefined) | inconclusive: 25.9 µM [inhibitor, single point] | 
43 | CC1CCCN(C(=O)CN2CCC(c3nc4ccc(Cl)cc4[nH]3)CC2)C1 (centres undefined) | inconclusive: 16.4 µM [inhibitor, partial curve, poor fit] | 
44 | CCc1cc(=O)[nH]c(SCC(=O)N2CCOCC2)n1 | inconclusive: 7.3 µM [activator, single point] | 
45 | CN(C(=O)c1ccccc1OCc1ccc(Cl)cc1)c1ccccc1 |  | inactive: -2.82%
46 | CCC(C)NC(=O)CCC(=O)Nc1ccc2nc(N3CCOCC3)cc(C)c2c1 (centres undefined) | inconclusive: 18.4 µM [activator, partial curve] | 
47 | COCCOC(=O)c1c(NC(=O)CN2CCOCC2)sc(C(N)=O)c1C |  | inactive: -6.91%
48 | Cc1cccc(NC(=O)CCSc2nnc(Cc3ccccc3)o2)c1 |  | inactive: 0.661%
49 | CC(Cc1cccs1)NC(=O)Nc1ccc(Cl)c(Cl)c1 (centres undefined) | inconclusive: 8.2 µM [activator, partial curve] | 
50 | N#Cc1c(NC(=O)CSc2nc(N)cc(=O)[nH]2)sc2c1CCCC2 |  | inactive: -5.28%

As a short view, some entries already given:
Row | Compound | Potency | activity change, negative = inhibition
36 | O=C(Nc1nnc(-c2ccccc2Cl)s1)c1ccccc1F | inconclusive: 5.8 µM [activator, partial curve] | 
37 | Cc1ccc2c(c1)sc1nc(=O)n(-c3ccc(Cl)cc3)c(=O)n12 |  | inactive: 28.3%

The listing continues:

Row | Compound | Potency | activity change, negative = inhibition
51 | O=C(c1cc(-c2ccc(Cl)cc2Cl)on1)N1CCCCCC1 | inconclusive: 8.2 µM [activator, partial curve] | 
52 | CCCCc1ccc(NC(=S)N2CCN(C)CC2)cc1 |  | inactive: 0.995%
53 | COc1cccc(/C=N/n2c(=S)n(C)c3ccccc32)c1OC |  | inactive: 8.7%
54 | O=C(NCc1ccccc1)/C(=N\O)c1ccccc1 | inconclusive: 20.6 µM [activator, single point] | 
55 | Cc1cc(C)n(C(C)CNS(=O)(=O)c2ccccc2)n1 (centres undefined) |  | inactive: 5.36%
56 | COc1cccc(C(=O)NC2CCCc3c2cnn3-c2ccc(C)c(C)c2)c1OC (centres undefined) |  | inactive: -13.9%
57 | Cc1cccc(NC(=O)CCc2ccc(S(=O)(=O)NC3CCCCC3)cc2)c1 | inconclusive: 20.6 µM [inhibitor, partial curve, poor fit] | 
58 | COc1ccccc1CN(C(=O)c1cnccn1)C(C(=O)NC1CCCCC1)c1cc(OC)c(OC)c(OC)c1 (centres undefined) |  | inactive: 3.34%
59 | N#Cc1cc2c(=O)n3ccccc3nc2n(-c2ccc(Cl)cc2)c1=O |  | inactive: -6.71%
60 | COc1ccc(N(CC(=O)NCCC2=CCCCC2)S(C)(=O)=O)cc1 |  | inactive: 0.576%
61 | O=S(=O)(Nc1ccccn1)c1cnc(Cl)c(Br)c1 |  | inactive: 4.86%
62 | Cc1ccc2c(c1)nnn2C1CCN(S(=O)(=O)c2ccc(C(=O)N(C)C3CCCCC3)cc2)CC1 | inconclusive: 12.6 µM [inhibitor, partial curve, poor fit] | 
63 | COc1cc(NC(=O)c2cc(-c3ccc4c(c3)OCO4)on2)cc(OC)c1OC |  | inactive: -3.83%
64 | CCOc1ccccc1NC(=O)N1CCCC1C(=O)NCc1cccs1 (centres undefined) |  | inactive: -8.46%
65 | CCc1ccc(S(=O)(=O)Nc2c(C)n(C)n(-c3ccccc3)c2=O)cc1 |  | inactive: -0.277%
66 | COc1cccc(/C=C/C(=O)Nc2cccc(C(C)=O)c2)c1OC | inconclusive: 6.51 µM [activator, single point] | 
67 | COc1ccc2[nH]cc(CCNC(=O)CC[C@H]3O[C@@H](n4cc(C)c(=O)[nH]c4=O)C[C@@H]3O)c2c1 |  | inactive: 8.76%
68 | CCN(Cc1ccccc1)C(=O)c1ccc(CNS(=O)(=O)c2ccc(C)cc2)cc1 |  | inactive: -23.7%
69 | CCc1ccc(NC(=O)C(C)OC(=O)/C=C/c2ccc(O)c(OC)c2)cc1 (centres undefined) | inconclusive: 25.9 µM [inhibitor, partial curve, poor fit] | 
70 | Cc1cc2nc(NCCCO)n(CC(=O)c3cc(C(C)(C)C)c(O)c(C(C)(C)C)c3)c2cc1C |  | inactive: -7.33%
71 | Fc1ccccc1-c1nc(-c2ccc(Br)o2)no1 | inconclusive: 8.2 µM [activator, partial curve] | 
72 | Cc1ccc(SCC(=O)NCCC2=CCCCC2)cc1 | inconclusive: 32.6 µM [activator, single point] | 
73 | Cc1ccc(CS(=O)(=O)CCC(=O)O)cc1 | inconclusive: 6.51 µM [inhibitor, partial curve, poor fit] | 
74 | Cc1ccc(-c2nc3[nH]c(=O)cc(NC(=O)C(C)C)n3n2)cc1 |  | inactive: -6.54%

Two records drawn at random from the list so far:
Row | Compound | Potency | activity change, negative = inhibition
6 | CCn1c(=O)c(C(=O)CN2CCc3ccccc32)c(N)n(Cc2ccccc2)c1=O | inconclusive: 29.1 µM [inhibitor, single point] | 
21 | COc1ccc(NC(=O)CN(C)CC(=O)N(CC(C)C)c2c(N)n(CC(C)C)c(=O)[nH]c2=O)cc1 | inconclusive: 29.1 µM [activator, single point] | 
